Data as given in the supplement of paper PMC6411743.
± gives the standard deviation of the averaged measurements. This is a selection; strong and weak results do not stand in their true shares.

The chains behind the UniProt entries cited, without tags or fusion partners. Where a name states a change or a piece, a line headed by the entry shows the natural chain unless it says otherwise.
UniProt Q6NZY4: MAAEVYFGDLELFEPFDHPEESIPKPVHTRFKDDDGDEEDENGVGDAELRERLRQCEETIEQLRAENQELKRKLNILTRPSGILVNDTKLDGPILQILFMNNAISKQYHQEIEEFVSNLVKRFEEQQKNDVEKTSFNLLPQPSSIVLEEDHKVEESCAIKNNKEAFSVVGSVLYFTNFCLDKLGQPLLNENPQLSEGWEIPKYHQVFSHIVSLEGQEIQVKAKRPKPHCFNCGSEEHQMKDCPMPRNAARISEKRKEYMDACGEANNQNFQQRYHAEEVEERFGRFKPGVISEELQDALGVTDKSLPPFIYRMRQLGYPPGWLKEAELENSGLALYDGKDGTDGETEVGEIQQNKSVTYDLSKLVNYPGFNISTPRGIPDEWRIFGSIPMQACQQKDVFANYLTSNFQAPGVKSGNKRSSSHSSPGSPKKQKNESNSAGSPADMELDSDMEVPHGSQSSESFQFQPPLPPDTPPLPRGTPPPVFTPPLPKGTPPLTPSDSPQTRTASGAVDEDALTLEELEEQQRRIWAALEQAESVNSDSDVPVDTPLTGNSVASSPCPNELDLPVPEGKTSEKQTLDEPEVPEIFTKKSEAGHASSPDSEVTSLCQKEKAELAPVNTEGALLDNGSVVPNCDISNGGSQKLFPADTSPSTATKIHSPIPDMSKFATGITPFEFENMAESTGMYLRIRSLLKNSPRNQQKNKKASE
UniProt Q6P4E1: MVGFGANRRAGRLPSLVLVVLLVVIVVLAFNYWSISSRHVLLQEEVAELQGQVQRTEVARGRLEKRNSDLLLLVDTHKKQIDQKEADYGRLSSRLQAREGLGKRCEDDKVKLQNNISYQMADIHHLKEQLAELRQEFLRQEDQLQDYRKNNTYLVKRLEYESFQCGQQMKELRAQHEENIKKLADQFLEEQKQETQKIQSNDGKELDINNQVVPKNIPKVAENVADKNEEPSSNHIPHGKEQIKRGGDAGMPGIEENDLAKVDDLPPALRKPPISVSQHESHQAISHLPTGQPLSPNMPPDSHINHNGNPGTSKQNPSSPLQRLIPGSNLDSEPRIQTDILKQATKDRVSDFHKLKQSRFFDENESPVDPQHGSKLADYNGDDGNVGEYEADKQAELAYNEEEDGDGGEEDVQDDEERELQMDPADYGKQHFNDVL
UniProt Q6BDS2: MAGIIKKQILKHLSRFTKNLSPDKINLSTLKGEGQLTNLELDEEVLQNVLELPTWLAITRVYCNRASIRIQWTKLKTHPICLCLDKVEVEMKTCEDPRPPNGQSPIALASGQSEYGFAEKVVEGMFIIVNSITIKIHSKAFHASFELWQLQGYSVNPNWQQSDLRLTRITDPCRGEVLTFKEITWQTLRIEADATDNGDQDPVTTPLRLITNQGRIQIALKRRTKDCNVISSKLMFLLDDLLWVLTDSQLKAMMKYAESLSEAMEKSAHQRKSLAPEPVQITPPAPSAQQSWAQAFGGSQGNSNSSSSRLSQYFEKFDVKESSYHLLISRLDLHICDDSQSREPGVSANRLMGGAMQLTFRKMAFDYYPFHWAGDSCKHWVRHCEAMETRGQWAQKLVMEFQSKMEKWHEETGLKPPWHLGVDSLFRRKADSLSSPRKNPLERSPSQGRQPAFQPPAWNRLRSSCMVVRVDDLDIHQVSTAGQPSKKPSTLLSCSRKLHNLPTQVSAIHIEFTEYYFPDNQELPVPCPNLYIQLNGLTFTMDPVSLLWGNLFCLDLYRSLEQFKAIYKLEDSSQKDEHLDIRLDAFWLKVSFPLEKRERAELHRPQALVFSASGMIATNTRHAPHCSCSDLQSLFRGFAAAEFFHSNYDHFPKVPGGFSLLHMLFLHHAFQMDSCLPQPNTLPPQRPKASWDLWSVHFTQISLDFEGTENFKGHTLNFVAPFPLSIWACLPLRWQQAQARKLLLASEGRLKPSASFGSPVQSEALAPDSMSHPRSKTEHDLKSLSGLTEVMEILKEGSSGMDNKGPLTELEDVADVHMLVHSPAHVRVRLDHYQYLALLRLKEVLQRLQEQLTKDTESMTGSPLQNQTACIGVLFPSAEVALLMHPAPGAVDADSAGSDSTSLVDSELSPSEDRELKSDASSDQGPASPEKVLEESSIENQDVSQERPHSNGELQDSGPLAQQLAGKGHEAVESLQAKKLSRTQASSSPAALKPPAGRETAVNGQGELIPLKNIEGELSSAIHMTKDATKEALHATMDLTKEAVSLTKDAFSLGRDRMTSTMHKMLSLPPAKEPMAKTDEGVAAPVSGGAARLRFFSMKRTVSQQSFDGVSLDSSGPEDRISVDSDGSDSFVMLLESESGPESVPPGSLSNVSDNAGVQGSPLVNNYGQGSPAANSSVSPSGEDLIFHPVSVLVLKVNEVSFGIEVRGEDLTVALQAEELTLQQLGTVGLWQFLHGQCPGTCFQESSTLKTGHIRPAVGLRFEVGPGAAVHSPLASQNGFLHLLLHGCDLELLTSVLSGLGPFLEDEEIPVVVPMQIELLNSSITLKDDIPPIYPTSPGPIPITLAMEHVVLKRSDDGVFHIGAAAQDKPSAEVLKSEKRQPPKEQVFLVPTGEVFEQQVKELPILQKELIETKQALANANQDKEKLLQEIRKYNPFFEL
UniProt Q63HQ0: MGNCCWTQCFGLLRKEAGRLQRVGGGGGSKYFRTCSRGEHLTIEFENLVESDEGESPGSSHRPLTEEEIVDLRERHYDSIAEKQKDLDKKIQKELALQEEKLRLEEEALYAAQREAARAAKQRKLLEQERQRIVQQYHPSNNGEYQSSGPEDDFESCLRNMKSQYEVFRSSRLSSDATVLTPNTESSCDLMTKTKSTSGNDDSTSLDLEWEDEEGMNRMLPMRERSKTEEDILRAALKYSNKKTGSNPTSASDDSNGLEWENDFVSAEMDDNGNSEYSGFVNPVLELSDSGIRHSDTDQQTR
UniProt Q5JS54: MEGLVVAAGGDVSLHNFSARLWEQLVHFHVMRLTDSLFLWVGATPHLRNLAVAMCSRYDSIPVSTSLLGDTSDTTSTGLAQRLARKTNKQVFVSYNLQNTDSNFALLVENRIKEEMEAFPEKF
UniProt Q5JPI3: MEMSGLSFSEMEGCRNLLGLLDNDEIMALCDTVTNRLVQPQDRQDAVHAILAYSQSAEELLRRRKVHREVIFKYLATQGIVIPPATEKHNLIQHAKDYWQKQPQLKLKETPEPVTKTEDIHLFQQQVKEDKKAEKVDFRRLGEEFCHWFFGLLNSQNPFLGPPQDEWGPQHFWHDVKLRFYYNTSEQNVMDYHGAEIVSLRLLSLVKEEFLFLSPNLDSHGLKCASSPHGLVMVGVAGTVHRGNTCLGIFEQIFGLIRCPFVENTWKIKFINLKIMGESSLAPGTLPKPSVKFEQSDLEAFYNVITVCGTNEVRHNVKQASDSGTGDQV
UniProt Q6IE81, whole entry: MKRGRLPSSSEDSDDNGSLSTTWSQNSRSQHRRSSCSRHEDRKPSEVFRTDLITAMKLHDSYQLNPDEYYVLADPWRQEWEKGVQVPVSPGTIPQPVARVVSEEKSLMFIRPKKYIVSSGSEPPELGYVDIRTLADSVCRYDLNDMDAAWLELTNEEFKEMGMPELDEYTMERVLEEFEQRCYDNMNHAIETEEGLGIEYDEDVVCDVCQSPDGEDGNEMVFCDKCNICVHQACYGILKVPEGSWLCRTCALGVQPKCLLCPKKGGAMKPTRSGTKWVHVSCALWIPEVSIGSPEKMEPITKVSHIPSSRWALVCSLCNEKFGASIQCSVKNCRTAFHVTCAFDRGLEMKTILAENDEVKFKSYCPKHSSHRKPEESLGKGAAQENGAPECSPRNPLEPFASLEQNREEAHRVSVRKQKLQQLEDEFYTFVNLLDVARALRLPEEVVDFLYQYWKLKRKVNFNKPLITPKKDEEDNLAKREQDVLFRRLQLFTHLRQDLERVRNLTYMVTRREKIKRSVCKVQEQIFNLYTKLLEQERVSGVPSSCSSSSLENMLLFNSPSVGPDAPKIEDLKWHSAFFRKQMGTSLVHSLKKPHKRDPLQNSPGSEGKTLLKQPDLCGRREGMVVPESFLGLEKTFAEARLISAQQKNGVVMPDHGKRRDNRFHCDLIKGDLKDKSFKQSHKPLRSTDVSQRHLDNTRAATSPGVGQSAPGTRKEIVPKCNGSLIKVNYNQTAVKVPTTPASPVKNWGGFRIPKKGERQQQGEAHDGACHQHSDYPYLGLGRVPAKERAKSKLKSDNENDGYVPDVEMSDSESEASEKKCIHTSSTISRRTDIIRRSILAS
UniProt Q5VW32: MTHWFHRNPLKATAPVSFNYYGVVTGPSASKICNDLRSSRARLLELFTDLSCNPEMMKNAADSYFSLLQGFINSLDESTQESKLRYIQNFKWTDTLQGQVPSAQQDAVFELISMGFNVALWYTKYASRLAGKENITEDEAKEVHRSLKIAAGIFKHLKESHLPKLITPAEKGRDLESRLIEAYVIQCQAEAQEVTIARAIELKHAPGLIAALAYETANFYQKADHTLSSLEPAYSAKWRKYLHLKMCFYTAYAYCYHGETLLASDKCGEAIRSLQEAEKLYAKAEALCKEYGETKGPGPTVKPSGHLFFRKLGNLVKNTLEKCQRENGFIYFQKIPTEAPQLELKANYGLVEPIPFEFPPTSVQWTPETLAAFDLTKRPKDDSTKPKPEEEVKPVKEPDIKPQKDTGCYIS
UniProt Q5QJE6: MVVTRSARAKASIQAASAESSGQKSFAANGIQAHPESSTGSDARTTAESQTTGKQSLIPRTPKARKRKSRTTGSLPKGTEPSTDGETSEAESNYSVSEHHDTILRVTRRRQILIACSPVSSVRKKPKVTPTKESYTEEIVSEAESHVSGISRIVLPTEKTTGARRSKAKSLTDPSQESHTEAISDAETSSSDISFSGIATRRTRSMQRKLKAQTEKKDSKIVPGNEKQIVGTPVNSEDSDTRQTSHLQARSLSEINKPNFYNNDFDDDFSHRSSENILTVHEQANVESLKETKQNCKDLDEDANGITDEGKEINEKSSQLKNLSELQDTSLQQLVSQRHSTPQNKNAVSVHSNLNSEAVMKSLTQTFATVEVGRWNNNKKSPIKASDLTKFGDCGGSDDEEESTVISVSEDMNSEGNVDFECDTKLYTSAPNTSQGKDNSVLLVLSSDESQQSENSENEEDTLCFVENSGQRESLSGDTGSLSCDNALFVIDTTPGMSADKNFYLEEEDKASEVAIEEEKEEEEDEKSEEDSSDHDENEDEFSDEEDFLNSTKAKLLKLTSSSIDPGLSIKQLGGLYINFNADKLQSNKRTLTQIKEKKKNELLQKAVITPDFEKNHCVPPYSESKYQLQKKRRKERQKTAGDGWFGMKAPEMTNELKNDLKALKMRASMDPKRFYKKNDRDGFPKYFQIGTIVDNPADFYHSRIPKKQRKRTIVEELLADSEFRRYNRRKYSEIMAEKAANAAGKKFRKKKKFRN
UniProt Q6N043: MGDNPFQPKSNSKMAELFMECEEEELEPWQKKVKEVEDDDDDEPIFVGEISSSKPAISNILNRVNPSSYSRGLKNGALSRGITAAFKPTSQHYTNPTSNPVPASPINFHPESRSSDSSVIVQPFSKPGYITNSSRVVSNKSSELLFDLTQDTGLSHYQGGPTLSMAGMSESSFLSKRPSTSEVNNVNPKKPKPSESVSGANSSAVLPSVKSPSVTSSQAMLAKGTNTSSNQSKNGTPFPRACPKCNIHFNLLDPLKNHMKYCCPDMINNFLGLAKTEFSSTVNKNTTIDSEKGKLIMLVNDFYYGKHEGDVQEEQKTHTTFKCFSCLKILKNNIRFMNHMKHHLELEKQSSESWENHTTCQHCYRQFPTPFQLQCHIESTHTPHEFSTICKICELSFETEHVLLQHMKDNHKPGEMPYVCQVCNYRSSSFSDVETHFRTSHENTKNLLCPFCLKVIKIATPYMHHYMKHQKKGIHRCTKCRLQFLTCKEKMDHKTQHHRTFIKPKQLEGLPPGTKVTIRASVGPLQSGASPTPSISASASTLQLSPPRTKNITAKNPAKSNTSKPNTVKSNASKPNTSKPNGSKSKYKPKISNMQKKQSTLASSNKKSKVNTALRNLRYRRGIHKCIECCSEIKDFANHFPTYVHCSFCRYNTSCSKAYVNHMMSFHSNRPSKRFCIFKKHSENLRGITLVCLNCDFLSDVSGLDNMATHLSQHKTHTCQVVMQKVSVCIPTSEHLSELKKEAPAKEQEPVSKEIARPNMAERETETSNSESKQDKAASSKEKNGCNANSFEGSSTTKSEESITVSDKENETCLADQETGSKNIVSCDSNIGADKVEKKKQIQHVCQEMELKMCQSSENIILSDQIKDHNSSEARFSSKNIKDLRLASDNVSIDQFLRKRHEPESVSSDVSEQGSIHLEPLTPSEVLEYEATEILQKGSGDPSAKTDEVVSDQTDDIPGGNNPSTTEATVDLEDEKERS
UniProt Q6IQ22: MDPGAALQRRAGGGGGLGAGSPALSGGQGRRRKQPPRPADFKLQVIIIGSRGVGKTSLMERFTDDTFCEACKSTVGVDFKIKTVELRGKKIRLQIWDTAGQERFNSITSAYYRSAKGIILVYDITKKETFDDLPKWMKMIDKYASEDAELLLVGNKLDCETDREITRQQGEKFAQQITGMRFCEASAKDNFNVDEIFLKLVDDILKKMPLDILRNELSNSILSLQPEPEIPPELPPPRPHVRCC

Compound: Nc1ncnc2c1ncn2[C@@H]1O[C@H](COP(=O)(O)OP(=O)(O)OP(=O)(O)O)[C@@H](O)[C@H]1O [adenosine triphosphate]
Assay: NP40-soluble protein abundance relative to vehicle (solubility fold change) (ratio); higher = more soluble protein in presence of ATP
Procedure, shortened: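 In three independent experiments, Jurkat crude lysate made by Dounce homogenisation was treated for 10 min at room temperature and then 3 min at 37 °C with eight concentrations ranging from 0.1 to 10 mM. It was then solubilised with 0.8% NP40 plus benzonase for 60 min at 4 °C and ultracentrifuged. The supernatant was TMT-labelled for LC-MS/MS, and each value is the fold change against the detergent-processed vehicle for the same replicate, using vsn-normalised intensities.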

Target	NP40-soluble protein abundance (concentration: 1mM)	NP40-soluble protein abundance (concentration: 2mM)	NP40-soluble protein abundance (concentration: 4mM)	NP40-soluble protein abundance (concentration: 6mM)	NP40-soluble protein abundance (concentration: 8mM)	NP40-soluble protein abundance (concentration: 10mM)
UniProt Q4LE39 and related entries	0.992 ± 0.041	0.978 ± 0.037	0.971 ± 0.025	1.01 ± 0.058	0.965 ± 0.032	0.999 ± 0.031
UniProt Q6GYQ0 and related entries	0.966 ± 0.047	0.944 ± 0.026	0.926 ± 0.039	0.95 ± 0.047	0.954 ± 0.05	0.945 ± 0.028
UniProt Q58WW2 and related entries	0.948 ± 0.032	0.9751 ± 0.0066	0.985 ± 0.025	0.993 ± 0.036	0.967 ± 0.033	1 ± 0.088
CMPK2 (UniProt Q5EBM0)	1.03 ± 0.05	1.04 ± 0.059	1.02 ± 0.048	0.978 ± 0.07	1 ± 0.057	0.994 ± 0.044
UniProt Q53GT1 and related entries	1.02 ± 0.21	0.874 ± 0.03	0.827 ± 0.11	0.958 ± 0.16	0.876 ± 0.14	0.898 ± 0.12
UniProt Q5T440	0.973 ± 0.094	0.986 ± 0.067	1 ± 0.027	0.903 ± 0.085	0.973 ± 0.032	0.99 ± 0.054
UniProt Q5FBB7 and related entries	1.01 ± 0.053	1.034 ± 0.0075	0.983 ± 0.044	1.09 ± 0.024	0.902 ± 0.044	0.898 ± 0.096
NT5DC1 (UniProt Q5TFE4)	1.02 ± 0.11	1.02 ± 0.085	1.01 ± 0.077	0.937 ± 0.13	0.991 ± 0.057	0.978 ± 0.052
UniProt Q5T4S7 and related entries	1.02 ± 0.045	0.9713 ± 0.0059	0.949 ± 0.017	0.922 ± 0.093	0.977 ± 0.078	0.961 ± 0.064
ZCCHC8 (UniProt Q6NZY4)	0.987 ± 0.089	0.97 ± 0.094	0.991 ± 0.086	1.07 ± 0.18	1.07 ± 0.095	1.09 ± 0.1
UniProt Q6ICL3 and related entries	1.01 ± 0.053	0.947 ± 0.097	1.03 ± 0.13	0.967 ± 0.13	0.976 ± 0.11	0.959 ± 0.15
HP1BP3 (UniProt Q5SSJ5)	0.989 ± 0.065	1.04 ± 0.04	1.08 ± 0.051	1.2 ± 0.11	1.18 ± 0.025	1.42 ± 0.058
UniProt Q6P4E1 and related entries	0.944 ± 0.12	0.888 ± 0.056	0.911 ± 0.042	0.9 ± 0.094	0.87 ± 0.018	0.762 ± 0.11
UniProt Q5VTB9 and related entries	0.935 ± 0.037	0.93 ± 0.048	0.94 ± 0.02	0.951 ± 0.022	0.92 ± 0.021	0.943 ± 0.032
UniProt Q6NT76 and related entries	0.93 ± 0.076	0.932 ± 0.044	0.94 ± 0.055	0.972 ± 0.046	0.934 ± 0.027	0.9101 ± 0.0044
MANEA (UniProt Q5SRI9)	0.913 ± 0.11	0.903 ± 0.1	0.973 ± 0.14	0.892 ± 0.12	0.8755 ± 0.0042	0.914 ± 0.013
UHRF1BP1 (UniProt Q6BDS2)	1.05 ± 0.13	1.04 ± 0.053	1.07 ± 0.081	1.09 ± 0.087	1.06 ± 0.034	1.08 ± 0.044
MRPL54 (UniProt Q6P161)	1.04 ± 0.084	0.919 ± 0.14	1.18 ± 0.091	1.11 ± 0.17	1.11 ± 0.068	0.993 ± 0.077
SAMD9 (UniProt Q5K651)	1.03 ± 0.11	1.02 ± 0.093	1.01 ± 0.093	0.981 ± 0.11	1.05 ± 0.073	1 ± 0.056
Q5JTV1 and related entries (UniProt Q9UKD1)	1.01 ± 0.019	1.09 ± 0.061	1.03 ± 0.032	1.01 ± 0.023	1.01 ± 0.031	1.012 ± 0.0019
UniProt Q5T3I0 and related entries	1.17 ± 0.09	1.24 ± 0.087	1.28 ± 0.085	1.35 ± 0.048	1.39 ± 0.084	1.48 ± 0.11
DENND1B (UniProt Q6P3S1)	0.994 ± 0.06	0.971 ± 0.041	0.966 ± 0.021	0.956 ± 0.06	0.962 ± 0.018	0.98 ± 0.062
UniProt Q63HQ0	0.927 ± 0.066	0.926 ± 0.037	0.898 ± 0.053	0.937 ± 0.044	0.863 ± 0.064	0.861 ± 0.036
UniProt Q69YN4 and related entries	1.08 ± 0.038	1.1 ± 0.017	1.12 ± 0.028	1.11 ± 0.02	1.13 ± 0.037	1.17 ± 0.051
Q5T5C7 (UniProt P49591)	0.951 ± 0.059	0.909 ± 0.072	0.893 ± 0.079	0.882 ± 0.093	0.906 ± 0.077	0.894 ± 0.065
UniProt Q6DHV7-2|Q6DHV7 and related entries	0.989 ± 0.027	1 ± 0.018	0.985 ± 0.034	1.08 ± 0.057	0.943 ± 0.13	0.9496 ± 0.0053

Target	NP40-soluble protein abundance (concentration: 1mM)	NP40-soluble protein abundance (concentration: 2mM)	NP40-soluble protein abundance (concentration: 4mM)	NP40-soluble protein abundance (concentration: 6mM)	NP40-soluble protein abundance (concentration: 8mM)	NP40-soluble protein abundance (concentration: 10mM)
NOL9 (UniProt Q5SY16)	1 ± 0.081	0.959 ± 0.068	0.969 ± 0.016	0.838 ± 0.029	0.934 ± 0.049	0.947 ± 0.061
UniProt Q5JS54 and related entries	0.977 ± 0.024	0.9954 ± 0.0085	0.909 ± 0.033	0.956 ± 0.029	0.96 ± 0.046	0.93 ± 0.046
UniProt Q5JPI3 and related entries	0.929 ± 0.15	0.867 ± 0.12	0.959 ± 0.13	0.936 ± 0.1	0.964 ± 0.12	0.987 ± 0.13
UniProt Q6IE81 and related entries	1.14 ± 0.21	1.2 ± 0.12	1.29 ± 0.15	1.16 ± 0.26	1.15 ± 0.25	1.23 ± 0.24
EAPP (UniProt Q56P03)	1.02 ± 0.13	0.971 ± 0.11	1.04 ± 0.14	1.06 ± 0.13	1.06 ± 0.1	1.02 ± 0.1
UniProt Q5TA45 and related entries	1.07 ± 0.12	1.04 ± 0.032	1.07 ± 0.023	0.984 ± 0.029	1.08 ± 0.037	1.12 ± 0.029
UniProt Q5VW32	0.996 ± 0.037	0.966 ± 0.054	0.931 ± 0.024	0.94 ± 0.091	0.945 ± 0.026	0.941 ± 0.082
MRPL2 (UniProt Q5T653)	1.04 ± 0.082	0.967 ± 0.12	0.955 ± 0.13	0.887 ± 0.14	0.973 ± 0.19	0.89 ± 0.11
DHX57 (UniProt Q6P158)	1.03 ± 0.022	1.05 ± 0.03	1.12 ± 0.033	1.14 ± 0.026	1.15 ± 0.059	1.08 ± 0.039
SLC27A4 (UniProt Q6P1M0)	1.04 ± 0.03	1.08 ± 0.068	1.09 ± 0.025	1.09 ± 0.066	1.1 ± 0.027	1.12 ± 0.078
PRPF8 (UniProt Q6P2Q9)	1.19 ± 0.11	1.19 ± 0.043	1.288 ± 0.011	1.241 ± 0.0059	1.58 ± 0.054	1.52 ± 0.12
DNTTIP2 (UniProt Q5QJE6)	1.22 ± 0.12	1.27 ± 0.072	1.31 ± 0.039	1.42 ± 0.089	1.334 ± 0.006	1.36 ± 0.057
UniProt Q5JPF3	0.988 ± 0.066	1.01 ± 0.056	1.093 ± 0.01	0.989 ± 0.059	0.992 ± 0.084	1.04 ± 0.13
RINT1 (UniProt Q6NUQ1)	1.02 ± 0.091	0.983 ± 0.06	0.956 ± 0.086	0.971 ± 0.1	0.995 ± 0.045	0.98 ± 0.079
UniProt Q5T5C0 and related entries	1.03 ± 0.077	1.01 ± 0.03	1 ± 0.095	0.996 ± 0.031	0.993 ± 0.14	0.988 ± 0.038
UniProt Q66PJ3 and related entries	1.12 ± 0.056	1.08 ± 0.034	1.08 ± 0.045	1.08 ± 0.042	1.01 ± 0.0044	0.939 ± 0.052
UniProt Q6N043 and related entries	1.03 ± 0.039	1.07 ± 0.029	1.11 ± 0.046	1.16 ± 0.072	1.18 ± 0.048	1.21 ± 0.061
ARHGAP15 (UniProt Q53QZ3)	1.08 ± 0.011	1.06 ± 0.0099	1.051 ± 0.0069	1.07 ± 0.039	1.07 ± 0.034	1.06 ± 0.035
EXOSC6 (UniProt Q5RKV6)	0.977 ± 0.054	1 ± 0.025	1.05 ± 0.042	1.11 ± 0.065	1.13 ± 0.072	1.12 ± 0.075
UniProt Q6P587 and related entries	0.987 ± 0.068	1.02 ± 0.032	0.984 ± 0.081	1.01 ± 0.044	0.97 ± 0.04	1.04 ± 0.034
UniProt Q5VIR6-4	0.985 ± 0.048	0.994 ± 0.026	0.994 ± 0.016	0.986 ± 0.012	0.962 ± 0.012	0.968 ± 0.023
ERICH5 (UniProt Q6P6B1)	0.894 ± 0.04	0.909 ± 0.011	0.913 ± 0.026	0.911 ± 0.064	0.859 ± 0.053	0.859 ± 0.0092
UniProt Q6P1X6 and related entries	0.947 ± 0.015	1.03 ± 0.037	0.987 ± 0.011	0.886 ± 0.066	0.989 ± 0.024	1 ± 0.043
RAB12 (UniProt Q6IQ22)	0.961 ± 0.029	0.997 ± 0.058	1.03 ± 0.047	0.945 ± 0.071	0.982 ± 0.073	1.01 ± 0.024
MIA3 (UniProt Q5JRA6)	0.946 ± 0.041	0.9483 ± 0.0089	0.957 ± 0.029	1 ± 0.036	0.9454 ± 0.0083	0.941 ± 0.031
UniProt Q5VSL9	0.932 ± 0.034	0.956 ± 0.013	0.942 ± 0.052	0.92 ± 0.05	0.939 ± 0.075	0.951 ± 0.045

Single entries from the list.
Entry of UniProt Q5JPF3 under NP40-soluble protein abundance (concentration: 2mM): 1.01 ± 0.056
Entry of EXOSC6 (UniProt Q5RKV6) under NP40-soluble protein abundance (concentration: 2mM): 1 ± 0.025
Entry of PRPF8 (UniProt Q6P2Q9) under NP40-soluble protein abundance (concentration: 8mM): 1.58 ± 0.054
